# For at least one entry, the source does not settle the construct or the ends of the probe.
# Amino acid sequences for entries named in this document (tags omitted). Residues count along the entry.
# UniProt P47741, 20-211: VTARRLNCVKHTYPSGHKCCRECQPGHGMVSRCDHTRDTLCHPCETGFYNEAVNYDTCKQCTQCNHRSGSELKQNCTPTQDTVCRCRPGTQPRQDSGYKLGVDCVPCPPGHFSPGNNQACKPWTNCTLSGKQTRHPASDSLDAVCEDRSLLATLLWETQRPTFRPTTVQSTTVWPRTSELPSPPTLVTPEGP
# Target: OX40 (CD134) (Mus musculus) (UniProt P47741)
# Assay: activity in cells
# Settings: 2'-F pyrimidines, 2'-OH purines; DNA linker with 18 carbon spacer between two copies of SEQ 91; 66 nM dimer increased proliferation of SEB-stimulated mouse lymph node T cells; protein on the cell surface; variant of OX40 aptamer SEQ 77
sequence,measurement,value
GGGGAAUUCUAAUACGACUCACUAUAGGGAGGACGAUGCGGCAGUCUGCAUCGUAGGAAUCGCCACCGUAUACUUUCCCACCAGACGACUCGCUGAGGAUCCGAGA / TCTCGGATCCTCAGCGAGT [OX40 aptamer dimer SEQ 77],functional effect of the aptamer,active

# From patent US20100076060
